Source: the supplement of paper PMC10849652
This is one part of the list.

Chains of the proteins cited; added tags and fusions are not shown. Lines headed by an entry give the natural chain unless they say otherwise; changes in a name come on top.
UniProt O94782: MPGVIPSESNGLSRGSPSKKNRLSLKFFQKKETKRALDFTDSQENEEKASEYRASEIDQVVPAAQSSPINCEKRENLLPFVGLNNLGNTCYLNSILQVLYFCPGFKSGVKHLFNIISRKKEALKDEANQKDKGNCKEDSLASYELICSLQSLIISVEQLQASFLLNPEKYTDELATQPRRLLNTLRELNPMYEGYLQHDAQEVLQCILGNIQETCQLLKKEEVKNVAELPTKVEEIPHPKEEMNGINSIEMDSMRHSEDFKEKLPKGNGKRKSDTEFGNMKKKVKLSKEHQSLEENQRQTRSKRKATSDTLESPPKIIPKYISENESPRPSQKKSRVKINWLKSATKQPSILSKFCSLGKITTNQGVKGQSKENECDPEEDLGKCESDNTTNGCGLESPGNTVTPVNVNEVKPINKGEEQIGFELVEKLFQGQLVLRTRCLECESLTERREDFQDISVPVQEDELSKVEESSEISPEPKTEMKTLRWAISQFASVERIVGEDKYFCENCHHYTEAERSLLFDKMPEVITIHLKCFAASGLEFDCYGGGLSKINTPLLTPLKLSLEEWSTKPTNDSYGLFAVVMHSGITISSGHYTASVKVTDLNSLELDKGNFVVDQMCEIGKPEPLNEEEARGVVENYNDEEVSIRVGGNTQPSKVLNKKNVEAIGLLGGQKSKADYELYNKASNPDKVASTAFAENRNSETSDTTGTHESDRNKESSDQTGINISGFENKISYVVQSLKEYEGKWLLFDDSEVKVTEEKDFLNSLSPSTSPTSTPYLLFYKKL
UniProt P55072, whole entry, looked up: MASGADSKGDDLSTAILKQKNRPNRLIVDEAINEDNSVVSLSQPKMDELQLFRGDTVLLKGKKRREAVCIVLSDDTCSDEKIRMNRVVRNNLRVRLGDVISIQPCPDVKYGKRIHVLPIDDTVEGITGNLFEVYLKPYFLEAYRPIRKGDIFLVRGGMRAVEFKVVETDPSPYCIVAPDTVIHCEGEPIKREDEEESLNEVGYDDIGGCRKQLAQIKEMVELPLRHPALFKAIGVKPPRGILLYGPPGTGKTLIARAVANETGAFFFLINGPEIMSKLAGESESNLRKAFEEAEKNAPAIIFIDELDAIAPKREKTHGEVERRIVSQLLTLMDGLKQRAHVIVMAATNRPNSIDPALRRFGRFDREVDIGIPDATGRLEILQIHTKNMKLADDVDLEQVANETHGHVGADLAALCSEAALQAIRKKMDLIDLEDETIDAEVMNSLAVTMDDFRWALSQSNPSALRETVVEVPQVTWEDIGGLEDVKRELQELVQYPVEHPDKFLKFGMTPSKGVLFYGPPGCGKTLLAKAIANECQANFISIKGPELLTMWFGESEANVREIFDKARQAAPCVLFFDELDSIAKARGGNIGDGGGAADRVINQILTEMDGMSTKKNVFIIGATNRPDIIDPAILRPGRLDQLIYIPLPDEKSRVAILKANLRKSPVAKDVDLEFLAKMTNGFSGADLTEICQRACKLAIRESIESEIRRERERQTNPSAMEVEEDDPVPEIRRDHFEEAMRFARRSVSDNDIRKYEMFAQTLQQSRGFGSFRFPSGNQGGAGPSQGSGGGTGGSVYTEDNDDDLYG
UniProt Q86UV5: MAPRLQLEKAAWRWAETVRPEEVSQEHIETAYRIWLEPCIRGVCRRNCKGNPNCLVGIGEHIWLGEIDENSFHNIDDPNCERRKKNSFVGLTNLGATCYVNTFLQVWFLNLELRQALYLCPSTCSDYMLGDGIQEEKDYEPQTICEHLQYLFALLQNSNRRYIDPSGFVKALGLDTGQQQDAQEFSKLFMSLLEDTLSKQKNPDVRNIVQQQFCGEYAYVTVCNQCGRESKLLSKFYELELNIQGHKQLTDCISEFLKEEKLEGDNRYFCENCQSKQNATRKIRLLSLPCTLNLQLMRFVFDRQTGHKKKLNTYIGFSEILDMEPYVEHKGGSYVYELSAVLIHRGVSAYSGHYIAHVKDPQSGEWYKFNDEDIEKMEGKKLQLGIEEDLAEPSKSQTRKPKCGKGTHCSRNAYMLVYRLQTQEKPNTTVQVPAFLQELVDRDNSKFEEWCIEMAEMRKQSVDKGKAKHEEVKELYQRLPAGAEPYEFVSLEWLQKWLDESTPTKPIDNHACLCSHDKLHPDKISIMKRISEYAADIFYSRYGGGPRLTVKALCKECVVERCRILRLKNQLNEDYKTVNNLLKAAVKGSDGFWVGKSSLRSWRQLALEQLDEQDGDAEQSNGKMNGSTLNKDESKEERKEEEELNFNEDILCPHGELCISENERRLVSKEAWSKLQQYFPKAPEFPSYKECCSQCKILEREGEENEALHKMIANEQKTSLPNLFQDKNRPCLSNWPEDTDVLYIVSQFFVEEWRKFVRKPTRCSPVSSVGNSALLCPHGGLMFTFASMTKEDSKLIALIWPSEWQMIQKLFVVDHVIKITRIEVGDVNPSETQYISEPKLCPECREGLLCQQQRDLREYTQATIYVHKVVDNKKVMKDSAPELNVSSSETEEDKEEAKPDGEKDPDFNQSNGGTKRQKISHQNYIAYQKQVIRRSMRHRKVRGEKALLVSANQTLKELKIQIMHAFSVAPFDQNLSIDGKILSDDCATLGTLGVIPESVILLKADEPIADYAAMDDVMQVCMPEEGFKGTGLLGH
UniProt Q9P2Y5: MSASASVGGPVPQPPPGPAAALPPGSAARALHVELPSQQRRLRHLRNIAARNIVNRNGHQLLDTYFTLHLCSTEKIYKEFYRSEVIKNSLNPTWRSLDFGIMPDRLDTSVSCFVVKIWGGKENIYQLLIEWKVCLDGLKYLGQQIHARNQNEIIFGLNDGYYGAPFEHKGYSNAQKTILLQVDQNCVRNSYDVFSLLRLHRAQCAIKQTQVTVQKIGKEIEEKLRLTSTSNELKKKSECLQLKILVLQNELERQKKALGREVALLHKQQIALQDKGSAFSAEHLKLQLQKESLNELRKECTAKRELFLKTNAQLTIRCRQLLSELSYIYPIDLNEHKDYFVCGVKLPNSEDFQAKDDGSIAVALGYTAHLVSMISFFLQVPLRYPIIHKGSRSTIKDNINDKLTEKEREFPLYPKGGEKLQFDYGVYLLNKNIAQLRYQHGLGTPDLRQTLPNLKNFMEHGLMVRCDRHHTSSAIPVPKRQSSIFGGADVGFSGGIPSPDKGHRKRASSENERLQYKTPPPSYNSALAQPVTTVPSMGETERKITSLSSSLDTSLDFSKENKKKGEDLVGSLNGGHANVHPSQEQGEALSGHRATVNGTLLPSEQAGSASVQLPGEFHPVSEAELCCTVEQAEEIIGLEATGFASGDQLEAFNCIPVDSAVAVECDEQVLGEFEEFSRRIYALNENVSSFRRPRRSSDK
UniProt Q8IZJ1, whole entry, looked up: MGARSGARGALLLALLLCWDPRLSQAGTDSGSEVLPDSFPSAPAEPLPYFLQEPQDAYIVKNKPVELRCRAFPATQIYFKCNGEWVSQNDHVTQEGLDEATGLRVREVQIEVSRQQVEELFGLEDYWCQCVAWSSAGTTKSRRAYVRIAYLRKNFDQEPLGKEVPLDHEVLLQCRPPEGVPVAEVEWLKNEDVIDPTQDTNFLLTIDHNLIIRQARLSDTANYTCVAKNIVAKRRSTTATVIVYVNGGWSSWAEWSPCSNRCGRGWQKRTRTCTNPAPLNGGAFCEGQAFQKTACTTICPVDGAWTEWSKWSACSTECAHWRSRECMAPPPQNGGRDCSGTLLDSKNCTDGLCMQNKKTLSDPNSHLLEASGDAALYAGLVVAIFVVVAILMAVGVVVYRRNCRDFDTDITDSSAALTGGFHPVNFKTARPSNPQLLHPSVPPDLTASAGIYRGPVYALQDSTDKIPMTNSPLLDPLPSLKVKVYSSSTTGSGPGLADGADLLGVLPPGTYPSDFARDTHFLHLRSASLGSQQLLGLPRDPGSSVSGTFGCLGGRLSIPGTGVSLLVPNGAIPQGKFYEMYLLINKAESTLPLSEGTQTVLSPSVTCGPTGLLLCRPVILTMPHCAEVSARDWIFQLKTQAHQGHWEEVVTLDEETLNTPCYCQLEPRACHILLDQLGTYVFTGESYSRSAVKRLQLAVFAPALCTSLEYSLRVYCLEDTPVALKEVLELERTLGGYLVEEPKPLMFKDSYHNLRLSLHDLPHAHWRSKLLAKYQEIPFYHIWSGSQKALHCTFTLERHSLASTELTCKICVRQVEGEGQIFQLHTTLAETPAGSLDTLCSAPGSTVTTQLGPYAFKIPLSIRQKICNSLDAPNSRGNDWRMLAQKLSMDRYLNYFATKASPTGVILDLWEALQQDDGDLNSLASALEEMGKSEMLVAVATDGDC
UniProt Q9Y5J1: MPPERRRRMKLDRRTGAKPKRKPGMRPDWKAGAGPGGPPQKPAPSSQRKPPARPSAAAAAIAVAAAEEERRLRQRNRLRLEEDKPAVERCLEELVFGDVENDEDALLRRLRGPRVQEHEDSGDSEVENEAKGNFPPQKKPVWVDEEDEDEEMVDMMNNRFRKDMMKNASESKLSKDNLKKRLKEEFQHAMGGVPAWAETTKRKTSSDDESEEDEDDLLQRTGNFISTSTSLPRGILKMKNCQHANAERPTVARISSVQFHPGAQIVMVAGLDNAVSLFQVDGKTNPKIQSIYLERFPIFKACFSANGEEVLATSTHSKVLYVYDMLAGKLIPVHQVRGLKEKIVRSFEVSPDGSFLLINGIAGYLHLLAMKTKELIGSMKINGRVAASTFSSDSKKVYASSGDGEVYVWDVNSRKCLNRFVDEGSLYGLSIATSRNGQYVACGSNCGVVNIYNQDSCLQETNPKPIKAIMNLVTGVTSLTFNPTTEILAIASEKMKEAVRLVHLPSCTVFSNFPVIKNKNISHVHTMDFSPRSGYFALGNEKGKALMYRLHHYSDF
UniProt P07919: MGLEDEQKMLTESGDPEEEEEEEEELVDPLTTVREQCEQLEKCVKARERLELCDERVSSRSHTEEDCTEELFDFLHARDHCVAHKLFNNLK
UniProt Q9NWZ5: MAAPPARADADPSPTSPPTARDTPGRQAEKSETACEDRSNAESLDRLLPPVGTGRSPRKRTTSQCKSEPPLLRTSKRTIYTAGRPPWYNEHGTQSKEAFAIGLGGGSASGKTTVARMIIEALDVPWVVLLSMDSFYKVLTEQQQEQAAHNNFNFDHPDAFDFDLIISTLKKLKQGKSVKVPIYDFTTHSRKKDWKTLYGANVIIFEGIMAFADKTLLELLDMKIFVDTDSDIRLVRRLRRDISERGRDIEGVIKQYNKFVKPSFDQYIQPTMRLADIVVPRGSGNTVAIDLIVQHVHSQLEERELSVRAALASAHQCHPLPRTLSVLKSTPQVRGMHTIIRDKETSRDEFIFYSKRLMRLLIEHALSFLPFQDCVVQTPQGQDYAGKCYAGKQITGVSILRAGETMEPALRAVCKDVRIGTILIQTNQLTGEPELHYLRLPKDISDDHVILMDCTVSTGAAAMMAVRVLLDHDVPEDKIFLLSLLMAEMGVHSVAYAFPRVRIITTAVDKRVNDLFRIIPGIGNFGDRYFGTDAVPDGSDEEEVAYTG
UniProt A6NIH7: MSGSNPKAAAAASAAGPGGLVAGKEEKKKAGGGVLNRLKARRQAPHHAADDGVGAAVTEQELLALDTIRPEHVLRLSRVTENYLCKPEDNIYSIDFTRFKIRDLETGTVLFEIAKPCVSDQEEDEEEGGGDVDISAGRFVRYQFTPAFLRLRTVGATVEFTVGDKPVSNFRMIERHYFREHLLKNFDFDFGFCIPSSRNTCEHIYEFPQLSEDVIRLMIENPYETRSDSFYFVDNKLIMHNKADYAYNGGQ
UniProt Q9Y277: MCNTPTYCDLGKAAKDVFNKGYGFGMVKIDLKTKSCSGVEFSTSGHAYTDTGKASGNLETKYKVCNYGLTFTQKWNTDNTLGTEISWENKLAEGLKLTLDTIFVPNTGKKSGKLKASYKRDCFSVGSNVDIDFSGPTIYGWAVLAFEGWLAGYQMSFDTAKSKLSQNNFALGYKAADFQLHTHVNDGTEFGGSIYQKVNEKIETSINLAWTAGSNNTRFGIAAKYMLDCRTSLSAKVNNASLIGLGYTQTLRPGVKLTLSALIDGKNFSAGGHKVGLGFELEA
UniProt Q9H1C4: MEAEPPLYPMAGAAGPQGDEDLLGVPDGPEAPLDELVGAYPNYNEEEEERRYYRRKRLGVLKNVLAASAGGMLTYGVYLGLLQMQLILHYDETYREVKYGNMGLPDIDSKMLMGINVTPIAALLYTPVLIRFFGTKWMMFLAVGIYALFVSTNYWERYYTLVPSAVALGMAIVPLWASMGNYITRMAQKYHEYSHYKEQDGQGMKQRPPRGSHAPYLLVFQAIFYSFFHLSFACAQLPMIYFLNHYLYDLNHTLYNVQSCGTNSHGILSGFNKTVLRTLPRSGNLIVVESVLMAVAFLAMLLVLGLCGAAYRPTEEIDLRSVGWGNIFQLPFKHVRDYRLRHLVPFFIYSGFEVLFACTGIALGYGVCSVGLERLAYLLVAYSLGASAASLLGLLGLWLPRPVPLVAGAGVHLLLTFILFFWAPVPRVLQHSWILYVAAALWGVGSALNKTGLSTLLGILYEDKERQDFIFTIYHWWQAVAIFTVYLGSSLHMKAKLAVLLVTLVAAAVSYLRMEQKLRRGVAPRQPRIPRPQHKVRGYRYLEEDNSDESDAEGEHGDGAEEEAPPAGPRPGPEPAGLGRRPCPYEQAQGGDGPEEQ

Each target was assayed with C[C@H](C1=CC=C(C=C1)C(=O)NC2=C3C=CNC3=NC=C2)N (assay: log2 fold change, soluble protein after heating vs DMSO (PISA); higher = thermal stabilisation; K562 lysate, 10 uM; active = over 0.2 and 3.5 SD of the protein, either way, in both replicates (recomputed)).
Method in brief: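 Following dounce homogenisation of K562 pellets in PBS pH 7.4 with 1 mM MgCl2, crude extract at 1 mg/mL protein was incubated for 30 min with 10 μM compound. Aliquots were then heated for 3 min over 48°C-58°C and pooled, NP-40 was added to 0.5% at 4°C, and soluble protein was recovered as the supernatant at 21,000xg for 90 min. Channel-sum-equalised TMTpro 16plex LC-MS/MS quantified this protein. Each value, from duplicates, is a log-two fold change in thermal stability relative to solvent controls.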

Target | log2 fold change
UQCRC1 (UniProt P31930) | inactive: -0.017
VDAC2 (UniProt Q5JSD1) | inactive: 0.076
USO1 (UniProt O60763) | inactive: 0.014
ULK3 isoform 4 (UniProt Q6PHR2) | inactive: 0.113
USP1 (UniProt O94782) | inactive: -0.027
VCP (UniProt P55072) | inactive: 0.057
USP48 (UniProt Q86UV5) | active: -0.577
UQCRFS1 (UniProt P47985) | inactive: 0.137
VASP (UniProt P50552) | inactive: -0.017
UROS (UniProt P10746) | inactive: 0.09
UGP2 (UniProt Q16851) | inactive: 0.004
UVRAG (UniProt Q9P2Y5) | inactive: 0.02
UNC5B (UniProt Q8IZJ1) | inactive: 0.29
USP11 (UniProt P51784) | inactive: -0.016
USP34 (UniProt Q70CQ2) | inactive: 0.03
URI1 isoform 4 (UniProt O94763) | inactive: -0.079
USO1 isoform 2 (UniProt O60763) | inactive: -0.005

Look-ups from the results shown:
In log2 fold change, UQCRFS1 (UniProt P47985) has the entry inactive: 0.137
In log2 fold change, UGP2 (UniProt Q16851) has the entry inactive: 0.004

(further entries)

Target | log2 fold change
UTP18 (UniProt Q9Y5J1) | inactive: 0.097
ULBP1 (UniProt Q9BZM6) | inactive: -0.168
UQCRH (UniProt P07919) | inactive: -0.056
UCKL1 (UniProt Q9NWZ5) | inactive: 0.003
UIMC1 (UniProt Q96RL1) | inactive: 0.027
UNC119B (UniProt A6NIH7) | inactive: -0.11
VDAC3 (UniProt Q9Y277) | inactive: -0.095
UNC93B1 (UniProt Q9H1C4) | inactive: -0.121
USP14 (UniProt P54578) | inactive: 0.108
UQCR11 (UniProt O14957) | inactive: 0.1
UMPS (UniProt P11172) | inactive: -0.001
VAPB (UniProt O95292) | inactive: -0.067
ULBP2 (UniProt Q9BZM5) | inactive: 0.008
UQCC2 (UniProt Q9BRT2) | inactive: 0.158
UNC45A (UniProt Q9H3U1) | inactive: 0.019
USP47 isoform 4 (UniProt Q96K76) | inactive: 0.031
